Results on one substance are retold here after doi:10.1101/2020.04.03.023721.

Protein sequences, listed by entry. Tags and fused reporters are not part of them.
UniProt Q9ULZ3: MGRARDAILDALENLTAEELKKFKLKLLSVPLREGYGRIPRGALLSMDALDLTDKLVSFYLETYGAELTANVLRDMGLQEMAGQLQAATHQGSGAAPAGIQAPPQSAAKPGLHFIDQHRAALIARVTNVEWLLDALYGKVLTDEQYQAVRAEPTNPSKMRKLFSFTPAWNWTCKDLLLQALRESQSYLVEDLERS
UniProt P49023: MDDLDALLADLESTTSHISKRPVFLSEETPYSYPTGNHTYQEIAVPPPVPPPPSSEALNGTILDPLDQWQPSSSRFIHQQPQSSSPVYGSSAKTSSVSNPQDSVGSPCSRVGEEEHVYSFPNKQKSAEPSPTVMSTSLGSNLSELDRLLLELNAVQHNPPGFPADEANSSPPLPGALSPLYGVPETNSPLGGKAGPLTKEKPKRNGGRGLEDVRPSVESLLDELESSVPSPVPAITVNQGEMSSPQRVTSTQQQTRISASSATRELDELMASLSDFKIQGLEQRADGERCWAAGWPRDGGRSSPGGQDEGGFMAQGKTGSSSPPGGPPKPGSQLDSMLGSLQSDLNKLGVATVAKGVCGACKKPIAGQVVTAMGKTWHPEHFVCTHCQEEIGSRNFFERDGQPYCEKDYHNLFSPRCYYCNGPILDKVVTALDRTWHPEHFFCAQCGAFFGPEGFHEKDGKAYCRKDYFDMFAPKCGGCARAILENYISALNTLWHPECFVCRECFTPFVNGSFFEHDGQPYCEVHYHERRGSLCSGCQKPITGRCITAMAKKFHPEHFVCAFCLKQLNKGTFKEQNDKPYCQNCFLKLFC

Assay in all cases: co-IP
One assay deals with T1, Flag-P2X7(29-595) (UniProt Q99572).
T1 sequence: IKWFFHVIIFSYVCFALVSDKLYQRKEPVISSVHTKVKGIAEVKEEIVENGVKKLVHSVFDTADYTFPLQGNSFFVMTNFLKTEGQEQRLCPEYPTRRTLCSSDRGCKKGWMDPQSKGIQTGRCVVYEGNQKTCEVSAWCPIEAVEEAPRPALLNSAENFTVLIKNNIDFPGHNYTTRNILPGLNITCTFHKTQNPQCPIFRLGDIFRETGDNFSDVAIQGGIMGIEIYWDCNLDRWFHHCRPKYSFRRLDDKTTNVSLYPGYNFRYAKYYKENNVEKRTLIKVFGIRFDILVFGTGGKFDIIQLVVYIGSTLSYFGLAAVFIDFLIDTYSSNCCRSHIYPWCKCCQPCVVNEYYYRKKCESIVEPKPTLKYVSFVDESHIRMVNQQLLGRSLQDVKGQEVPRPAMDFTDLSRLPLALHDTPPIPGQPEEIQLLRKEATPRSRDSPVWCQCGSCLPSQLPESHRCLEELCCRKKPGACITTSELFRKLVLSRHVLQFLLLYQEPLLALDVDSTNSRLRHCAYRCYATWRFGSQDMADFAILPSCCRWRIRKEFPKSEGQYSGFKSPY

A further assay deals with T2, Flag-P2X7(33-595) (UniProt Q99572).
T2 sequence: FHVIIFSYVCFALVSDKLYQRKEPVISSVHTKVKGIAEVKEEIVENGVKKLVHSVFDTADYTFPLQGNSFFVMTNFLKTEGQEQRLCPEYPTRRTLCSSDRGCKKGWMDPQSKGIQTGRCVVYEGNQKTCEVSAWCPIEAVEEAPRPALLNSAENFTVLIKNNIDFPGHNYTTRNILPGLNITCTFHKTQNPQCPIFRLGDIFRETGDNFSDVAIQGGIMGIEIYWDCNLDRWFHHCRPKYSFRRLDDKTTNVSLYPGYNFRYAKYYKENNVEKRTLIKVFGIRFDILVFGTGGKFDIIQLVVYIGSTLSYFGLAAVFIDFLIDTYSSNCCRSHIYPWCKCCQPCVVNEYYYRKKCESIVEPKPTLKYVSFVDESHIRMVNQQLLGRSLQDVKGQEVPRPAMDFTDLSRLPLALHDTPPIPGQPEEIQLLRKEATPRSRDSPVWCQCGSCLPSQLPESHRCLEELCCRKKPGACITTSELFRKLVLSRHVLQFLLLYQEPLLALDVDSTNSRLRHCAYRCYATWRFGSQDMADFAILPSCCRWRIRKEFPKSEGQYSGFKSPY

Another assay has as its target Flag-ASC (human) (UniProt Q9ULZ3).
In the next assay the target is T3, Flag-P2X7(356-595) (UniProt Q99572).
T3 sequence: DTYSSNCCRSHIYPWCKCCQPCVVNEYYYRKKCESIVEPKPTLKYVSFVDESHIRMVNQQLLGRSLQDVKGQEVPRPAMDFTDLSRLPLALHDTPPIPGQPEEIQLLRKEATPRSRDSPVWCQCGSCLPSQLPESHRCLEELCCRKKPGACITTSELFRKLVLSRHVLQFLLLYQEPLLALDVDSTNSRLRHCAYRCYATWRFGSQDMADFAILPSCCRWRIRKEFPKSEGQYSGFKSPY

In the next assay the target is T4, Flag-UPS13 (human) (UniProt Q92995).
T4 sequence: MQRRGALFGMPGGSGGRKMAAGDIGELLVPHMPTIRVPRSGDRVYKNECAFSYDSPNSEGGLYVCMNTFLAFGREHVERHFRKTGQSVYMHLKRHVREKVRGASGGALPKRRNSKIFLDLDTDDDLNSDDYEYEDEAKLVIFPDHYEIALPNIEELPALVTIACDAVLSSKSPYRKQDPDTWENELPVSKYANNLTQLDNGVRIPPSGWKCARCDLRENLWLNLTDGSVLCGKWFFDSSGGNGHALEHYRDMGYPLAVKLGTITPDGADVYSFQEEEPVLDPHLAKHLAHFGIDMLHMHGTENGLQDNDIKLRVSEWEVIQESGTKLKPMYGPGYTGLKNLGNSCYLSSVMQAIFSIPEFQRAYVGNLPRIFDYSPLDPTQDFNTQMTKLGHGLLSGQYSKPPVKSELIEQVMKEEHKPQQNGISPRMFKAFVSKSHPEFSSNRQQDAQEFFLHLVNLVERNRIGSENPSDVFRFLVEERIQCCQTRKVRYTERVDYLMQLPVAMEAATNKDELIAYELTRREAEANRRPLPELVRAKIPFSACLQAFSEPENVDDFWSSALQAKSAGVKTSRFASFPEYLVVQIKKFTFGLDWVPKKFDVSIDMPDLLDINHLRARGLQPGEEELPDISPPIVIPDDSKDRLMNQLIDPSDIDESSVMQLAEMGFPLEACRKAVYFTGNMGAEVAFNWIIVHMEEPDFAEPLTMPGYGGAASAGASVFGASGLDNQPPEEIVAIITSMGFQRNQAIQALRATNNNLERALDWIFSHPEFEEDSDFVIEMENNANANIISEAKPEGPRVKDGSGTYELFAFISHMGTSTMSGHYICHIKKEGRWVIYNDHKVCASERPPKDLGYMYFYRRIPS

Results are given in words; binding and its absence hold for the method and conditions named. In cells and extracts the contact can be indirect. Some results given as binding are weak or reduced against the parent protein; the word gives no strength. For some assays here: Tags and fused reporters may be left off the sequences shown.

Turning to HA-Paxillin (from UniProt P49023 1-591), the binding result with Flag-P2X7(29-595) was “binds”; with Flag-P2X7(33-595), “no binding”; with Flag-ASC (human) it was “no binding”; with Flag-P2X7(356-595), “no binding”; with Flag-UPS13 (human) it was “binds”.
